# Data as given in PubChem BioAssay AID1671190 (National Center for Advancing Translational Sciences (NCATS), 2021).
# Protein sequences, listed by entry. Tags and fused reporters are not part of them. Lines headed by an entry give the natural chain unless they say otherwise; changes in a name come on top.
# UniProt P18054: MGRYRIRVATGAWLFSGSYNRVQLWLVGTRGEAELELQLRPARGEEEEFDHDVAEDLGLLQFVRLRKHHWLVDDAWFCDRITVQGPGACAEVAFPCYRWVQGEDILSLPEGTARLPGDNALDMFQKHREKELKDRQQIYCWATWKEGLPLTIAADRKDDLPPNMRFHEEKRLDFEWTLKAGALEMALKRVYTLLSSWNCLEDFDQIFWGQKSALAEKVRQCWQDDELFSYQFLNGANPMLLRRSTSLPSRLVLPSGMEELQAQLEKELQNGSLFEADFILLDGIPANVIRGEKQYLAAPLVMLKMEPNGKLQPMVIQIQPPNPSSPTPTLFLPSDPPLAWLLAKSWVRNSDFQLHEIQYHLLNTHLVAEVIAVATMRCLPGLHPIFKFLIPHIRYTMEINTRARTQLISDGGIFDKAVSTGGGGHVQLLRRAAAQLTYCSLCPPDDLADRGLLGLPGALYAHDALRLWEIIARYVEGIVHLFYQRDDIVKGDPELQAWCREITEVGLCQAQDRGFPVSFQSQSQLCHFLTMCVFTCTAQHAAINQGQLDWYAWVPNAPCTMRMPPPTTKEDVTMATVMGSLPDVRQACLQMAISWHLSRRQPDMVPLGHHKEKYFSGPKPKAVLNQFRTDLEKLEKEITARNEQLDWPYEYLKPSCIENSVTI
# About 6,100 (1.1%) of roughly 580,000 compounds were called active. Inconclusive results, whose numbers are uncertain, are shown with a selection of clear calls. Calls follow the shape of the dose curve; as a rule, active = well fitted inhibition curve with a large enough effect; inconclusive = small, poorly fitted or top-dose-only effect, or another doubt; inactive = no such curve, though single readings can be large or run the other way. Potencies of inconclusive entries are doubtful fits and often do not repeat.
# Biological target: Polyunsaturated fatty acid lipoxygenase ALOX12 (Homo sapiens) (UniProt P18054)
# Test: Primary qHTS assay for inhibitors of human arachidonate 12S-lipoxygenase (ALOX12): Round 2
# Details: purified 12hLO, xylenol orange hydroperoxide absorbance; series mostly up to 108 µM
# In short: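 Hydroperoxide product was detected by ferrous iron/xylenol orange as the 573 to 405 nm absorbance ratio. Arachidonic acid at 40 uM (final) was turned over for 30 min at room temperature by 150 nM human 12hLO, pH 7.0 Hepes buffer, after 15 min compound preincubation.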
# Potency is read from the fitted curve at half-maximal effect.
row,SMILES,Potency
1,Cc1nc(N2CCN(Cc3ccccc3)CC2)c(C#N)c2c1COC(C)(C)C2,inactive
2,O=C(CCNC(=O)c1ccco1)NCc1ccccc1,inactive
3,COc1ccc2cc(C(=O)C3CCCN(Cc4cnc(N5CCOCC5)s4)C3)ccc2c1 (stereo not given),inactive
4,Cc1[nH]n(C(C)(C)C)c(=O)c1Sc1ccc(Cl)cc1,"inconclusive: 31.6 µM [inhibitor, partial curve, poor fit]"
5,CC(SC1=Nc2ccccc2C2CC=NN12)C(=O)NC1(C#N)CCCCC1 (stereo not given),inactive
6,CCCNC(=O)NNC(=O)C(C)Oc1cccc(C(F)(F)F)c1 (stereo not given),inactive
7,CCN(CC)N=Nc1ccc(C(=O)O)cc1,"inconclusive: 50.1 µM [inhibitor, partial curve, poor fit]"
8,O=C1c2ccc(-c3ccc(F)cc3OCc3ccccc3)cc2S(=O)(=O)c2cccc(C(=O)N3CCN(c4ncc(Br)cn4)CC3)c21,"inconclusive: 44.7 µM [inhibitor, partial curve, poor fit]"
9,CCc1ccc(N(C(=O)CNC(=O)c2ccco2)C(C(=O)NC2CCCC2)c2cccnc2)cc1 (stereo not given),inactive
10,COc1ccc(Cn2c3c(c(=O)n2Cc2ccccc2)CCN(C(=O)Cc2cccc(Cl)c2)C3)cc1,"inconclusive: 31.6 µM [inhibitor, partial curve]"
11,Cc1cc(=O)[nH]c(SCC(=O)c2ccc3c(c2)NC(=O)CO3)n1,"inconclusive: 112 µM [inhibitor, single point]"
12,COc1ccc(-c2csc(NC(=O)Cn3cnc4c3c(=O)n(C)c(=O)n4C)n2)c2ccccc12,inactive
13,Cc1cccc(NC(=S)NCC2(C)CCCC3(C)c4ccc(C(C)C)cc4CCC23)c1 (stereo not given),active: 15.8 µM
14,CC(CCc1ccccc1)NC(=O)/C=C/c1ccc(Cl)cc1 (stereo not given),inactive
15,O=C(Nc1ccccc1OC(F)F)c1ccc2ccccc2n1,inactive
16,COc1cccc(-c2noc(C3CCCN(C(=O)c4ccccc4OC)C3)n2)c1 (stereo not given),inactive
17,CCOc1cc(/C=N\NC(=O)Cn2nnc3ccccc32)ccc1O,"inconclusive: 100 µM [inhibitor, single point]"
18,COc1ccc(/C=C2\SC(=O)N(CCNC(=O)Cc3coc4cc(OC)ccc34)C2=O)cc1,"inconclusive: 5.01 µM [inhibitor, full curve, poor fit]"
19,Cc1ccc(Nc2cc(C(=O)NCc3cccs3)c3ccccc3n2)c(C)c1,"inconclusive: 20 µM [inhibitor, partial curve, poor fit]"
20,COc1ccc(O)c(-c2c(-c3ccc(Cl)cc3)n[nH]c2C)c1,"inconclusive: 4.47 µM [inhibitor, full curve, poor fit]"
21,C[C@@H]1CCCCO[C@H](CN(C)Cc2ccc(Cl)c(Cl)c2)[C@H](C)CN([C@@H](C)CO)C(=O)c2cc(NC(=O)Nc3ccc(F)cc3)ccc2O1,"inconclusive: 63.1 µM [inhibitor, partial curve, poor fit]"
22,COC(=O)CCC(=O)Nc1sc(C)c(C)c1C(N)=O,"inconclusive: 39.8 µM [inhibitor, partial curve, poor fit]"

row,SMILES,Potency
1,Cc1ccccc1N(CC(=O)Nc1ccc(F)cc1)S(C)(=O)=O,inactive
2,Cc1ccc(S(=O)(=O)Nc2cc(C(F)(F)F)ccc2N2CCOCC2)cc1C,"inconclusive: 3.98 µM [inhibitor, full curve, poor fit]"
3,c1ccc(Cn2c(-c3ccco3)nc3nc4ccccc4nc32)cc1,"inconclusive: 35.5 µM [inhibitor, partial curve, poor fit]"
4,COc1ccc(C(C(=O)NC2CCCCC2)N(C(=O)c2sc(C)nc2C)c2ccccc2)cc1 (stereo not given),inactive
5,CC(C)Oc1cccc(C(=O)Nc2nnc([C@H]3C[C@H](O)[C@@H](CO)O3)s2)c1,"inconclusive: 35.5 µM [inhibitor, partial curve, poor fit]"
6,Cc1[nH]nc(-c2ccc(S(=O)(=O)N3CCN(c4ccccc4)CC3)s2)c1C,"inconclusive: 44.7 µM [inhibitor, partial curve, poor fit]"
7,CCCCc1c(O)nc(SCC(=O)c2ccccc2)n(-c2ccccc2OC)c1=O,"inconclusive: 100 µM [inhibitor, partial curve, poor fit]"
8,COc1cccc(/C=C/c2nc3c(ccc4ccccc43)s2)c1OC,inactive
9,OC(CN1CCOCC1)c1ccc(F)cc1 (stereo not given),"inconclusive: 7.08 µM [inhibitor, full curve]"
10,Oc1ccccc1-c1cc(-c2ccc(F)cc2)n[nH]1,"inconclusive: 50.1 µM [inhibitor, partial curve, poor fit]"
11,CCOC(=O)c1cc2c(=O)n3cccc(C)c3nc2n(CC(C)C)c1=NC(=O)c1ccco1,"inconclusive: 158 µM [inhibitor, single point]"
12,O=C(Nc1cc(F)ccc1F)N1CC(c2noc(-c3ccccc3)n2)C1,inactive
13,COc1ccc(OC)c(S(=O)(=O)Nc2ccc(C(C)=O)cc2)c1,inactive
14,COC(=O)c1ccccc1NC(=O)Cn1c(-c2ccccc2)nc(C)cc1=O,"inconclusive: 31.6 µM [inhibitor, single point]"
15,O=C(CN(Cc1ccco1)S(=O)(=O)c1ccccc1)N1CCN(C(=O)c2cccs2)CC1,"inconclusive: 0.224 µM [inhibitor, full curve, poor fit]"
16,Cc1cccc(N2CCN(C(=O)/C=C/c3ccco3)CC2)c1C,"inconclusive: 17.8 µM [inhibitor, full curve, poor fit]"
17,Cc1ccc(SC(C(=O)c2ccccc2)C(=O)c2ccccc2)cc1,inactive
18,COc1ccc(NC(=O)Cc2c(C)c3ccc(OC)cc3oc2=O)c(OC)c1,inactive
19,O=C1CCCC2=C1C(c1ccncc1)n1c(nc3ccccc31)N2 (stereo not given),inactive
20,CC[C@H]1CN(C(=O)N2CCOCC2)CC[C@H]1CC(=O)N1CCOCC1,"inconclusive: 1.12 µM [inhibitor, full curve, poor fit]"
21,O=C(c1ccc(C2CCCNC2)cc1)N1CCC(N2CCCCC2)CC1 (stereo not given),"inconclusive: 31.6 µM [inhibitor, partial curve]"
22,Cc1cc(/C=C/C(=O)c2ccc(O)c(CCCl)c2)cc(C)c1OC(F)F,"inconclusive: 39.8 µM [inhibitor, partial curve, poor fit]"

row,SMILES,Potency
1,O=C(Nc1ccccc1C(=O)NC1CCCC1)c1cnc2ccccc2n1,inactive
2,S=C1NC(c2ccccc2)=NCN1c1ccc(Cl)cc1,"inconclusive: 31.6 µM [inhibitor, partial curve]"
3,O=c1ccn(Cc2ccccc2)c(SCc2ccccc2)n1,"inconclusive: 141 µM [inhibitor, single point]"
4,Cc1ccc(CN=c2c([N+](=O)[O-])nn(-c3ccc(Cl)cc3)n2O)cc1,"inconclusive: 79.4 µM [inhibitor, partial curve, poor fit]"
5,O=C(NNC(=S)NC(=O)c1cccnc1)c1ccc(F)cc1,"inconclusive: 31.6 µM [inhibitor, partial curve, poor fit]"
6,O=C(N[C@H]1CCN2C(=O)c3cc(Br)ccc3NC(=O)[C@@H]2C1)C1CCNCC1,"inconclusive: 11.2 µM [inhibitor, full curve, poor fit]"
7,CCC(=O)N1CCN(c2nc3c(s2)CC(C(=O)Nc2ccc(C(C)C)cc2)CC3)CC1 (stereo not given),"inconclusive: 11.2 µM [inhibitor, full curve]"
8,Cc1ccc(C)c(CN2C(=O)NC3(CCN(C(=O)c4ccncc4)CC3)C2=O)c1,"inconclusive: 20 µM [inhibitor, partial curve, poor fit]"
9,COc1ccc(CNc2nc(-c3ccccc3OC)nc3ccccc23)c(OC)c1,"inconclusive: 14.1 µM [inhibitor, partial curve, poor fit]"
10,O=c1c2ccccc2c(-c2n[nH]c(=S)o2)nn1Cc1ccccc1,"inconclusive: 79.4 µM [inhibitor, single point]"
11,O=C(CSC1=N/C(=C/c2ccco2)C(=O)N1c1ccc(OC(F)F)cc1)NC1CCS(=O)(=O)C1 (stereo not given),"inconclusive: 89.1 µM [inhibitor, partial curve, poor fit]"
12,N#Cc1ccccc1COC(=O)c1ccc(C(=O)c2ccccc2)cc1,"inconclusive: 44.7 µM [inhibitor, partial curve, poor fit]"
13,CC[n+]1ccccc1/C=C1\Sc2ccc(C)cc2N1C,active: 39.8 µM
14,O=C(CN1CCCCC1)Nc1nc(-c2ccc(F)c(F)c2)cs1,inactive
15,COc1ccc(C(CNC(=O)c2cccc(NS(=O)(=O)c3ccc(C)c(F)c3)c2)N2CCOCC2)cc1 (stereo not given),"inconclusive: 39.8 µM [inhibitor, partial curve, poor fit]"
16,Cc1cc(C)cc(CN2CCC3(Cc4ccccc4CNC3=O)C2)c1 (stereo not given),"inconclusive: 79.4 µM [inhibitor, partial curve, poor fit]"
17,COc1ccc(C(C)(NC(C)=O)c2nc(/C=C/c3ccccc3)cs2)cc1 (stereo not given),"inconclusive: 100 µM [inhibitor, partial curve, poor fit]"
18,COc1ccc(NC(=O)/C=C/c2cccc(C(F)(F)F)c2)cn1,"inconclusive: 8.91 µM [inhibitor, partial curve, poor fit]"
19,CC(C)(C)CN1CCOC[C@H]1c1ncc(-c2cccc(Cl)c2)[nH]1,inactive
20,CCOC(=O)CSc1nc(C)c2cccc(C)c2n1,"inconclusive: 112 µM [inhibitor, single point]"
21,CC(=O)NC(CC(=O)Nc1nc(-c2ccc(N(C)S(C)(=O)=O)cc2)cs1)c1ccccc1 (stereo not given),"inconclusive: 126 µM [inhibitor, single point]"

# Reformatted bar-delimited: two of the compounds above.
row | SMILES | Potency
11 | O=C(CSC1=N/C(=C/c2ccco2)C(=O)N1c1ccc(OC(F)F)cc1)NC1CCS(=O)(=O)C1 (stereo not given) | inconclusive: 89.1 µM [inhibitor, partial curve, poor fit]
12 | N#Cc1ccccc1COC(=O)c1ccc(C(=O)c2ccccc2)cc1 | inconclusive: 44.7 µM [inhibitor, partial curve, poor fit]
